In PMC6017737, “Functional Impact of the N-terminal Arm of Proline Dehydrogenase from Thermus thermophilus” (Molecules : A Journal of Synthetic Chemistry and Natural …, 2018):
Results are given in words; binding and its absence hold for the method and conditions named. Where a sequence is shown, tags or fusion partners need not be part of it.

Target: T1, MBP-TtProDH variant EE (MBP-TtProDH with Phe10 and Leu12 replaced by Glu) (Thermus thermophilus) (UniProt Q72IB8)
T1 sequence: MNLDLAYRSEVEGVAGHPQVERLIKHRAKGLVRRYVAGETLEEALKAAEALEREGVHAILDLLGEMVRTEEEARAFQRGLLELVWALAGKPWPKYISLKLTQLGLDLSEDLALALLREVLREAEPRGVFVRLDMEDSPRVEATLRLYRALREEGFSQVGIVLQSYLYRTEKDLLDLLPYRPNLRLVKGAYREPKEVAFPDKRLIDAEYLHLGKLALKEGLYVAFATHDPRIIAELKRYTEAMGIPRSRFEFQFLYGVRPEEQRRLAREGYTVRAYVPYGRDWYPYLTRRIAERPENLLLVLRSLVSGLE
Assay: SEC; 20 µM EE and 20 µM ΔABC mixed in 50 mM sodium phosphate pH 7.4, incubated at room temperature overnight, then Superdex 200 gel filtration; SDS-PAGE of the fractions; both purified

binding: no binding (tested: 20 µM each)
B1: MBP-TtProDH ΔABC (MBP-TtProDH lacking helices αA, αB and αC) (domain or fragment, Thermus thermophilus, UniProt Q72IB8 38-287, looked up)
chain: GETLEEALKAAEALEREGVHAILDLLGEMVRTEEEARAFQRGLLELVWALAGKPWPKYISLKLTQLGLDLSEDLALALLREVLREAEPRGVFVRLDMEDSPRVEATLRLYRALREEGFSQVGIVLQSYLYRTEKDLLDLLPYRPNLRLVKGAYREPKEVAFPDKRLIDAEYLHLGKLALKEGLYVAFATHDPRIIAELKRYTEAMGIPRSRFEFQFLYGVRPEEQRRLAREGYTVRAYVPYGRDWYPYLT
notes: Proline dehydrogenase (TtProDH), Thermus thermophilus, lacking the whole N-terminal arm; PDB 5M42)'; the construct encodes up to residue 309, but the observed species is C-terminally truncated, cleaved before Arg288 (residues 288-309 removed); The difference of the predicted masses of ΔAB and ΔABC (75.5 against 74.4 kDa) fits a start at G38; not shown: MBP, N-terminal, kept
